# Assay results as given in PubChem BioAssay.
# The list shows a part of the results, in another mix than the full data. The source made the active and inactive calls.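 The calls were made as follows: active = binding below the plate cutoff, the plate median minus 3 SD, with a reading above zero; inconclusive = below the plate cutoff but reading exactly zero; inactive = the rest.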
# Test system: anti-desmoglein-3 scFv antibody binding to human DSG3
# Experiment: blockers of pathogenic pemphigus antibody–desmoglein-3 binding – biochemical, validation compound set, bead-based, flow cytometry, pilot screen (AID 588368);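 also: signal is the median channel fluorescence of bead-bound GFP antibody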
# Conditions: Protein G beads, DSG3-Fc, scFv-GFP binding, at 10 µM, stronger effect = lower value
compound,measurement,value
CN[C@H]1C[C@H]2O[C@@](C)([C@H]1OC)n1c3ccccc3c3c4c(c5c6ccccc6n2c5c31)C(=O)NC4,binding (% of control),inactive: 101%
